The subject of this assay is Prolactin Secretion. Description: Prolactin Secretion (in-vitro). In kind it is cell-based. To be noted: Rat, read-out: Prolactin Secretion ID50.

This note sets out measurements from patent publication US4471116A, “Substituted (10H-phenothiazin-10-L)-propyl-1-piperazines” (Hoffmann-La Roche Inc., priority 1982, dated 1984).

For `O=C(CCCN1CCC(O)(c2ccc(Cl)cc2)CC1)c1ccc(F)cc1` [Haloperidol, haloperidol, reference compound], the IC50 was 27 nM.
